Patent US20200306301A1
No constants are given. Whether binding was seen depends on the method and setting. Some entries that bind do so weakly or less than the wild type. For some assays here: Where a sequence is shown, tags or fusion partners need not be part of it.

By UniProt entry, the sequences of proteins in these tests, tags left out. Residues count along the entry.
UniProt P08575, residues 26-1306: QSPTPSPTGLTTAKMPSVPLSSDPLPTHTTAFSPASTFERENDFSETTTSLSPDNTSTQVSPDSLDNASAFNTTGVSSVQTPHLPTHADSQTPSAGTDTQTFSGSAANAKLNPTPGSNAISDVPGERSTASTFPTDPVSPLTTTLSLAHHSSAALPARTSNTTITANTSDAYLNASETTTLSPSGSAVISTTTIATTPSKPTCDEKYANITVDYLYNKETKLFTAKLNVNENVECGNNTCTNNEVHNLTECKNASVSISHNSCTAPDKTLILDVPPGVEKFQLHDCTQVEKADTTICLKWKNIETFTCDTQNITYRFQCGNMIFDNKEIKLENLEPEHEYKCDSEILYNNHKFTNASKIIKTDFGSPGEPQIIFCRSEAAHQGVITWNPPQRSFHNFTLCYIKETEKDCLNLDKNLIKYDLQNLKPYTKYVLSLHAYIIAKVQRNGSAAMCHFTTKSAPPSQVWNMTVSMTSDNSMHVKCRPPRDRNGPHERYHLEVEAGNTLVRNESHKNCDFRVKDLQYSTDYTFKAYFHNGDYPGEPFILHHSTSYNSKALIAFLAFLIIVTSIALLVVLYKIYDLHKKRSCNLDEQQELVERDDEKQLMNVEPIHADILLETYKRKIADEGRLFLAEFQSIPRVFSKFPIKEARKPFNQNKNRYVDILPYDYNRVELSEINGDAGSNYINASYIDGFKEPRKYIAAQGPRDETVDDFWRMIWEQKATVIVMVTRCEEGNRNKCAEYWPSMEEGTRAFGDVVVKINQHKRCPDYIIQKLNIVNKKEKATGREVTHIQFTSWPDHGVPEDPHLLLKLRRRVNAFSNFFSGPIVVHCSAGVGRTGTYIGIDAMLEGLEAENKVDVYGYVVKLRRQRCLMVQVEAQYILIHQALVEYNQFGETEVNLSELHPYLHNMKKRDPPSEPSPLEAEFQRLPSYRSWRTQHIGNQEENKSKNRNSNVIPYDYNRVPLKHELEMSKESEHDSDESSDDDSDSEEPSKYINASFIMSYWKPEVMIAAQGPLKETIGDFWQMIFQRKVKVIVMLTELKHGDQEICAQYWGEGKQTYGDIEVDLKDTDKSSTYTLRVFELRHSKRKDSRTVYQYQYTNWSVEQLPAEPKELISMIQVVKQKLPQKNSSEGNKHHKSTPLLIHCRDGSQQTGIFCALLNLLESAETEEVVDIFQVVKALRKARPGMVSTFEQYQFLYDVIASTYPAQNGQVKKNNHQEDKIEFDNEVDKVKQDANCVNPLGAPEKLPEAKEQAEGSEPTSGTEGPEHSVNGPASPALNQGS

Tests used:
[1] = molecular target: CD45 (human) expressed on the surface of activated primary human T cells (human) (UniProt P08575); assay: flow cytometry on T cells, detection through the hexahistidine tag
[2] = molecular target: CD45 (human) expressed on the surface of activated primary human T cells (human) (UniProt P08575); assay: flow cytometry titration on activated human CD8 T cells

Binder	binding [1]	binding [2]
BC8scFv (monomeric, hexahistidine tag) (scFv, V domains shown, not shown: small tags and cut ends) VH: QVQLVESGGGLVQPGGSLKLSCAASGFDFSRYWMSWVRQAPGKGLEWIGEINPTSSTINFTPSLKDKVFISRDNAKNTLYLQMSKVRSEDTALYYCARGNYYRYGDAMDYWGQGTSVTVSS VL: DIVLTQSPASLAVSLGQRATISCRASKSVSTSGYSYLHWYQQKPGQPPKLLIYLASNLESGVPARFSGSGSGTDFTLNIHPVEEEDAATYYCQHSRELPFTFGSGTKLEIK	binds	
hBC8(23) humanized BC8 IgG anti-CD45 antibody (antibody, V domains shown) VH: EVQLVESGGGLVQPGGSLRLSCAASGFDFSRYWMSWVRQAPGKGLEWIGEINPTSSTINFADSVKGRFTISRDNAKNSLYLQMNSVRDEDTAVYYCARGNYYRYGDAMDYWGQGTLVTVSS VL: EIVLTQSPATLSLSLGERATISCRASKSVSTSGYSYLHWYQQKPGQAPKLLIYLASNRATGVPARFSGSGPGTDFTLTISSLEPEDFATYYCQHSRELPFTFGQGTKLEIK		binds
